Source: PubChem BioAssay AID652272 (Drosophila RNAi Screening Center, 2013)

Screen: 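Genes whose knock-down decreases or increases Hedgehog reporter output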 (primary screen)
Cells: Drosophila clone 8 (Cl8) cells
Reagents: long dsRNA against Drosophila genes
Read-out: 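Firefly light from a Hedgehog-responsive ptc promoter reporter and Renilla reference light, both read on a plate reader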
Reading the numbers: firefly Hh reporter signal: higher = more ptc reporter light; Renilla reference signal: higher = more Renilla control light
Active means: 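Hit when the z-score averaged over two replicates is under -2 or over +3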
Calls: active = hit: reporter lowered or raised; inactive = not a hit
The screen tested about 21,000 reagents; shown is a random part of those that have a named target and a result. In the full data, 503 (2.4%) are marked active. 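Raw plate light values, not normalised; calls rest on replicate z-scores that were not deposited; hits include reporter decreases as well as increases.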 Reagents against one gene are numbered here. A plus sign joins genes that one reagent is predicted to hit. Not given: the amount of reagent, the time to read-out.

| Target gene | reagent | firefly Hh reporter signal, replicate 1 | firefly Hh reporter signal, replicate 2 | firefly Hh reporter signal, replicate 3 | Renilla reference signal, replicate 1 | Renilla reference signal, replicate 2 | outcome |
| --- | --- | --- | --- | --- | --- | --- | --- |
| Prosalpha2 | 1 | 48468 | 58320 | – | 2346 | 9718 | inactive |
| form3 | 1 | 70413 | 63245 | – | 5429 | 5210 | inactive |
| form3 | 2 | 1.03e5 | 73046 | – | 4850 | 3624 | inactive |
| form3 | 3 | 51376 | 80600 | – | 3533 | 5709 | inactive |
| Gr93c | 1 | 7.77e5 | 1.52e5 | – | 43890 | 2509 | inactive |
| Ntf-2r | 1 | 71238 | 33752 | – | 1672 | 2023 | inactive |
| Arl2 | 1 | 61408 | 95472 | – | 2327 | 2800 | inactive |
| IntS14 | 1 | 1.07e5 | 64616 | – | 5844 | 3909 | inactive |
| Dhdds | 1 | 57104 | 2.33e5 | – | 2132 | 8626 | inactive |
| Cyp9h1 | 1 | 77248 | 45176 | – | 1901 | 3185 | inactive |
| CG11674 | 1 | 1.85e5 | 85748 | – | 4161 | 2211 | inactive |
| tho2 | 1 | 53772 | 55139 | – | 3152 | 3016 | inactive |
| CG4793 | 1 | 97264 | 61943 | – | 2720 | 5832 | inactive |
| CG13408 | 1 | 51052 | 1.77e5 | – | 10938 | 4150 | inactive |
| CG13408 | 2 | 7.79e5 | 1.72e5 | – | 40715 | 13346 | inactive |
| Vps35 | 1 | 64436 | 63800 | – | 2624 | 2573 | inactive |
| Pgant4 | 1 | 1.42e5 | 97957 | – | 3564 | 7053 | inactive |
| fd3F + CR42499 | 1 | 60251 | 2.47e5 | – | 1803 | 8530 | inactive |
| fd3F + CR42499 | 2 | 69162 | 3.10e5 | – | 1767 | 10736 | inactive |
| CG31437 | 1 | 43810 | 5.16e5 | 2.21e5 | 12208 | 3929 | inactive |
| inaF-B | 1 | 4.41e5 | 2.03e5 | – | 24568 | 4336 | inactive |
| Rabex-5 | 1 | 93088 | 85837 | – | 4872 | 3510 | inactive |
| CG9003 | 1 | 1.03e5 | 67149 | – | 2544 | 4706 | inactive |
| Prosbeta1 | 1 | 52709 | 44149 | – | 3737 | 2160 | inactive |
| CG32712 | 1 | 1.03e5 | 77312 | – | 2450 | 1829 | inactive |
| Ack-like | 1 | 1.14e5 | 40980 | – | 4058 | 1338 | inactive |
| CG32829 | 1 | 9.28e5 | 9.26e5 | 3.55e5 | 52736 | 3094 | inactive |
| CG34276 | 1 | 97243 | 95216 | – | 1917 | 2812 | inactive |
| lectin-24A | 1 | 1.08e5 | 58915 | – | 2658 | 5271 | inactive |
| Xbp1 | 1 | 7.15e5 | 1.46e5 | – | 6587 | 6587 | inactive |
| Myb | 1 | 84474 | 50874 | – | 2336 | 1197 | inactive |
| CG42449 | 1 | 65917 | 5.01e5 | 2.29e5 | 2323 | 2891 | inactive |
| Top1 | 1 | 82512 | 1.41e5 | – | 2583 | 5829 | inactive |
| CG16998 | 1 | 54384 | 48731 | – | 6316 | 3600 | inactive |
| ort | 1 | 5.68e5 | 88288 | – | 29124 | 2711 | inactive |
| ics | 1 | 75144 | 95864 | – | 3568 | 3882 | inactive |
| CG15211 | 1 | 75857 | 2.25e5 | – | 1996 | 7490 | inactive |
| CecC | 1 | 74624 | 1.36e5 | – | 1904 | 3669 | inactive |
| Idh3g | 1 | 5.57e5 | 1.28e5 | – | 27344 | 3707 | inactive |
| Appl | 1 | 1.48e5 | 78400 | – | 3440 | 2954 | inactive |
| CG5079 | 1 | 2.57e5 | 51735 | – | 15200 | 1909 | inactive |
| Pdcd4 | 1 | 1.08e5 | 1.48e5 | – | 3538 | 6898 | inactive |
| Dora | 1 | 49500 | 1.57e5 | – | 1352 | 6922 | inactive |
| Dora | 2 | 1.14e5 | 2.86e5 | – | 2620 | 13436 | inactive |
| Dora | 3 | 52810 | 1.20e5 | – | 1593 | 6673 | inactive |
| Dora | 4 | 46386 | 90304 | – | 1211 | 4560 | inactive |
| elB | 1 | 1.90e5 | 71894 | – | 4428 | 6824 | inactive |
| CG34249 (retired record) | 1 | 2.24e5 | – | – | 5236 | – | inactive |
| Grip91 | 1 | 58619 | 43985 | – | 1180 | 832 | inactive |
| CG15403 | 1 | 1.37e5 | 63628 | – | 3232 | 6983 | inactive |
| Uvrag | 1 | 1.02e5 | 81776 | – | 4667 | 3437 | inactive |
| Tnpo-SR | 1 | 1.07e5 | 73149 | – | 4667 | 3445 | inactive |
| CG33640 | 1 | 6.62e5 | 2.31e5 | – | 31993 | 8995 | inactive |
| CG4218 | 1 | 1.58e5 | 64842 | – | 3696 | 5860 | inactive |
| RhoL | 1 | 1.63e5 | 1.01e5 | – | 6275 | 4092 | inactive |
| Oga | 1 | 75740 | 81405 | – | 3536 | 3050 | inactive |
| wfs1 | 1 | 5.09e5 | 1.06e5 | – | 23440 | 3339 | inactive |
| ND-20 | 1 | 1.26e5 | 1.01e5 | – | 3497 | 2396 | inactive |
| CG30192 | 1 | 92614 | 2.83e5 | – | 2402 | 12633 | inactive |
| CG34450 | 1 | 1.06e5 | 91474 | – | 2841 | 2048 | inactive |
| S2P | 1 | 62352 | 63340 | – | 1735 | 4103 | inactive |
| CG13577 | 1 | 65637 | 39655 | – | 1728 | 3312 | inactive |
| CG42812 | 1 | 4.80e5 | 83196 | – | 22842 | 2853 | inactive |
| Hacd2 | 1 | 1.06e5 | 60087 | – | 2608 | 4357 | inactive |
| GMF | 1 | 1.15e5 | 94746 | – | 5458 | 4116 | inactive |
| Zip89B | 1 | 70592 | 63526 | – | 2640 | 1842 | inactive |
| Mnn1 | 1 | 1.61e5 | 96859 | – | 4132 | 8084 | inactive |
| fs(1)Ya | 1 | 81858 | 86728 | – | 1684 | 2651 | inactive |
| Ae2 | 1 | 5.03e5 | 75734 | – | 3686 | 3686 | inactive |
| Ae2 | 2 | 1.19e5 | 73640 | – | 4691 | 2482 | inactive |
| SMC3 | 1 | 1.03e5 | 2.29e5 | – | 3273 | 6903 | inactive |
| Or94a | 1 | 4.67e5 | 77898 | – | 22800 | 2108 | inactive |
| CG13494 | 1 | 1.28e5 | 80624 | – | 3307 | 6844 | inactive |

Just “Renilla reference signal, replicate 1” (6 entries from above):
CG9003: 2544
Prosbeta1: 3737
CG32712: 2450
Ack-like: 4058
CG32829: 52736
CG34276: 1917
